Results: PubChem BioAssay AID2417 (National Center for Advancing Translational Sciences (NCATS), 2010)
Among all 140,000 compounds or so, about 4,300 (3.1%) were called active. Inconclusive results, whose numbers are uncertain, are shown with a selection of clear calls.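 Rule for the calls: active = readout at or below -70, meaning at least 70% loss of cells showing the perinucleolar compartment, a nuclear body marking cancer cells; inconclusive = readout between -30 and a set limit; inactive = the rest.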

Assay: High Content Assay for Compounds that inhibit the Assembly of the Perinucleolar Compartment
Settings: PC3M PTB-GFP, PNC prevalence imaging, 16 h; at 10 µM; stronger effect = lower value
From the text: High Content Assay for Compounds that inhibit the Assembly of the Perinucleolar Compartment NIH Chemical Genomics Center [NCGC] NIH Molecular Libraries Probe Centers Network [MLPCN] MLPCN Grant: MH082371-01A2 Assay Submitter (PI): Sui Huang, Northwestern University, Feinberg School of Medicine, Cell and Molecular Biology, Chicago, Illinois. The perinucleolar compartment (PNC) is a non-membrane-bound nuclear subdomain that is associated with but structurally distinct from the nucleolus. The PNC is a heritable trait, in which the number of PNCs per cell in daughter cells often mimics that of their mother cells. The PNC is heterogeneous in shape, is stable through interphase, disassembles during mitosis, and reassembles in early G1. The PNC is concentrated with newly synthesized RNA polymerase III (pol III) RNAs (MRP RNA, RNAse P H1 RNA, hY RNAs[hY1, 2, 5], Alu RNA, and SRP [7SL] RNA) and RNA binding proteins (nucleolin, PTB, CUG-BP, KSRP, Raver1, Raver2, and Rod). […] Extensive in vitro studies have shown that the PNC is unique to tumor cells and preferentially forms in tumor cells derived from solid tissues. Examination of cancer cell lines from various origins and malignant capacities has shown that PNC prevalence correlates with the malignancy of tumors and has the potential to be developed as a pan-cancer prognostic marker. […] Although the PNC is associated with a DNA locus and a handful of components have been identified, much remains to be investigated regarding the structure and function of the PNC and its mechanistic link to cancer. We have previously shown that PNC prevalence reduction is a valid strategy to identify compounds that can be used to study the structure and function of the PNC. It is necessary, however, to create a screening platform that is able to test a large number of compounds in an automated fashion. Here we report the development and robustness of an automated whole-cell phenotypic image-based screening assay that is capable of identifying such compounds.
PNC High Content Imaging Assay Procedure: 1. Cells at a density of 75-90% confluency in T175 flasks were harvested using 7 ml TrypLE Express cell dissociation reagent. After dissociation (5 minutes room temperature incubation) 10 ml of complete media was added to the TrypLE/cell suspension. The liquid was transferred to a 50 ml Conical tube and cells were pelleted at 1000 RPM for 5 min. Supernatant was removed and cells were resuspended to a final density of 150-200 cells/ul in complete media. 2. Cells were plated in 5 ul volume (750-1000 cells/well) into 1536 well Black uclear Aurora Low Base plates and allowed to recover and adhere at 37 C in a humidified 5% CO2 incubator for 4 hours. 3. After 4 hour incubation, compound libraries (23 nl of […] in columns 5-48) were transferred to the plates in duplicate using a 1536 well pintool. Camptothecin positive control (59 uM final) was added to column 2 and 1:3 dilutions of camptothecin was added to column 3. DMSO negative controls were present in columns 1 and 4. 4. After a 16 hour incubation in the 37 C incubator, cells were fixed by the addition of 4 ul of 6% EM grade paraformaldehyde (containing 0.1% triton X 100) directly to the cells. The plates were incubated at room temperature for 20 minutes. The liquid was removed using a 32 channel Kalypsys aspirator and the fixed cells were washed twice with 5 ul PBS followed by a final addition of 5 ul PBS containing 1 ug/ml Hoechst 33342. 5. Fixed plates were sealed and sotred at 4C until imaged. 6. Plates were imaged on an InCell 1000 automated microscope using a 20 x objective, a standard FITC filter set, no camera binning, and an exposure time of ~100-150 msec/well. 7. Data analysis. PNC prevalence was determined using the Multitarget analysis module from InCell Workstation software (V3.5 ) and analysis was run on a quad core workstation using the Incell Developer Toolbox (V1.7). […]

| SMILES | activity change (PNC), negative = inhibition |
| --- | --- |
| COc1cccc(C(=O)NC(=S)Nc2ccc([N+](=O)[O-])cc2C)c1 | inactive: -22.9% |
| Cc1ccc(NC=C(S(=O)(=O)c2ccccc2)S(=O)(=O)c2ccccc2)c(C)c1 | inactive: -2.89% |
| COc1ccccc1N1CCN(C(=O)c2ccc(CS(=O)(=O)c3ccccc3OC)o2)CC1 | inconclusive: -63.1% |
| S=c1[nH]nc(-c2ccccn2)n1/N=C/c1ccccc1 | inconclusive: -34% |
| O=C(O)CC1S/C(=N/N=C/C=C/c2ccccc2[N+](=O)[O-])NC1=O (configuration not stated) | inconclusive: -72.5% |
| Cn1c(-c2ccccc2)cc2c3no[n+]([O-])c3ccc21 | inconclusive: -38.4% |
| CN1C(=O)CC(N2CCC(C(N)=O)(N3CCCCC3)CC2)C1=O (configuration not stated) | inactive: -10.6% |
| Cc1cc(=O)oc2cc(OCc3nnc(-c4ccccc4Br)o3)ccc12 | inactive: 13.1% |
| Cn1cccc1/C=N/n1c(-c2ccc(C(C)(C)C)cc2)n[nH]c1=S | inactive: 54% |
| Cc1cccc(C)c1Nc1nnc(SCC(=O)Nc2cc(S(=O)(=O)N3CCCCC3)ccc2Cl)s1 | inconclusive: -55.4% |
| Cc1ccc(-c2csc3ncnc(SCC(=O)Nc4nnc(C)s4)c23)cc1 | inconclusive: -48.5% |
| CC(=O)c1c(C)[nH]c(C(=O)OC(C)C(=O)Nc2cc(S(=O)(=O)N3CCCCC3)ccc2Cl)c1C (configuration not stated) | inconclusive: -53.6% |
| Cc1cc(/C=C2\Cc3ccccc3C2=O)c(C)n1-c1ccccc1 | inconclusive: -62.8% |
| COCc1nnc(NS(=O)(=O)c2ccc(C)cc2)s1 | inactive: -10.6% |
| COCCN1C(=O)c2ccccc2C(C(=O)NCCCN2CCCC2)C1c1c[nH]c2ccccc12 (configuration not stated) | inconclusive: -43.2% |
| Cc1ccc(S(=O)(=O)N(C)CCCC(=O)Nc2cc(C)ccc2C)cc1 | inconclusive: -57.7% |
| CCOC(=O)c1cc(-c2ccc(C#N)cc2)nc2c1c(C)nn2CCC#N | active: -111% |
| CC(C)(Oc1ccc(Cl)cc1)C(=O)NCc1ccco1 | inconclusive: -30.7% |
| Cc1ccc(C(=O)Nc2ccc(S(=O)(=O)N3CCc4ccccc43)cc2)o1 | inconclusive: -34.9% |
| NC1=NC(c2ccc(F)cc2)n2c(nc3ccccc32)N1 (configuration not stated) | inactive: 19.3% |
| O=C(Cn1c(=O)oc2cc(S(=O)(=O)N3CCc4ccccc43)ccc21)N1CCCCC1 | inconclusive: -46.5% |
| CCN(CC)CCN1C(=O)C(O)=C(C(=O)c2cc3ccccc3o2)C1c1cccnc1 (configuration not stated) | inactive: -26.6% |
| Cc1ccc(-n2c(O)c(C=NCc3ccccn3)c3ccccc3c2=O)cc1C | inactive: 27.4% |

Molecules shown so far containing an aryl thioether with sulfur outside any ring (2):

| SMILES | activity change (PNC), negative = inhibition |
| --- | --- |
| Cc1cccc(C)c1Nc1nnc(SCC(=O)Nc2cc(S(=O)(=O)N3CCCCC3)ccc2Cl)s1 | inconclusive: -55.4% |
| Cc1ccc(-c2csc3ncnc(SCC(=O)Nc4nnc(C)s4)c23)cc1 | inconclusive: -48.5% |

Additional compounds

| SMILES | activity change (PNC), negative = inhibition |
| --- | --- |
| CCN1CCN(S(=O)(=O)c2cccc3nsnc23)CC1 | inconclusive: -70.4% |
| Cc1cnc(C(=O)OCC(=O)Nc2cc(Cl)cc(Cl)c2)cn1 | inconclusive: -45.6% |
| O=C1C(C=Nc2ccccc2O)=C(O)c2ccccc21 | inactive: 0% |
| CCCCNC(=S)NNC(=O)c1nn(C)cc1Cl | inactive: 15.2% |
| COCC(C)n1c(C)cc(C(=O)COC(=O)c2n[nH]c3ccccc23)c1C (configuration not stated) | inconclusive: -50.2% |
| Cc1ccc(C)c(S(=O)(=O)NCc2ccc(C(=O)N3CCCCCC3)cc2)c1 | inconclusive: -79.6% |
| O=C(COC(=O)c1ccc[nH]c1=O)NCC1CCCO1 (configuration not stated) | inconclusive: -33.6% |
| Cc1cccc(C)c1NC(=O)CSc1ccc([N+](=O)[O-])cn1 | inconclusive: -48.6% |
| CN(CCCCCC(=O)/C=N/O)Cc1ccccc1 | inactive: 35.6% |
| CC(=O)N1CCCc2ccccc21 | inactive: -1.74% |
| Cc1oc2ccc(NS(=O)(=O)c3cccc4cccnc34)cc2c1C(=O)OC(C)C | inactive: 22.7% |
| CCOC(=O)N1CCN(C(=O)CN(Cc2ccccc2)S(=O)(=O)c2ccc(OC)c(C)c2)CC1 | inconclusive: -55% |
| Cc1cc(C(F)(F)F)nn1Cc1n[nH]c(=S)n1-c1cccc(Cl)c1 | inconclusive: -49.8% |
| CN(C)CCCN(Cc1ccccc1)C(=S)Nc1cccc(C(F)(F)F)c1 | inactive: -20.6% |
| CNc1ccc(NC(C)=O)cc1[N+](=O)[O-] | inconclusive: -77.5% |
| CCOc1nc(-c2ccccc2Cl)ccc1C#N | inconclusive: -76.4% |
| CC(=O)SC(C)CC(=O)NCc1ccccc1 (configuration not stated) | inactive: -24.6% |
| COC(=O)c1cn(NC(=O)C2COc3ccccc3O2)c(=O)c2ccccc12 (configuration not stated) | inactive: -23.4% |
| Cc1cccn2c(=O)c(/C=C(\C#N)S(=O)(=O)c3ccccc3)c(N3CCN(C)CC3)nc12 | inconclusive: -60.2% |
| COc1ccc(-n2c(=O)c3ccccc3n(CC(=O)NC3CCCC3)c2=O)c(OC)c1 | inconclusive: -53.4% |
| Cc1cc(C)c2nc(C(F)(F)F)c(C#N)c(N)c2c1 | inactive: 20.4% |
| Cc1ccc(-c2nnc(SCC(=O)N3CC(C)CC(C)C3)o2)cc1C (configuration not stated) | inconclusive: -35.6% |
| Cc1nn2c(N)c(C#N)cnc2c1-c1ccc(Cl)cc1 | inactive: 0.977% |

| SMILES | activity change (PNC), negative = inhibition |
| --- | --- |
| CS(=O)(=O)N1CCN(c2c(Cl)cccc2[N+](=O)[O-])CC1 | inconclusive: -45.3% |
| COc1ccc(OC)c(-c2cc(C(=O)NCc3ccco3)no2)c1 | inconclusive: -59.3% |
| Cc1cccc(OCCN2CSC(=S)N(C)C2)c1 | inconclusive: -70.5% |
| O=C(C1CCCCC1)N1CCC(n2nnc3ccccc32)CC1 | inactive: -26.9% |
| CCN(CC)c1ccc(/C=N/Nc2nc3ccccc3[nH]2)cc1 | inactive: -17.7% |
| Cc1csc2nc(CSc3ccc(Cl)cc3)cn12 | inconclusive: -35% |
| COc1ccc2nc3sc(C(=O)NCc4cccs4)c(N)c3cc2c1 | inactive: 36.2% |
| Cc1ccccc1CN(c1ccc(C(=O)Nc2ccccc2C(=O)NCc2ccco2)cc1)S(C)(=O)=O | inconclusive: -41.3% |
| CCCCc1nnc(NC(=O)CSc2nc(=O)cc(N)n2-c2cccc(C)c2)s1 | active: -81.3% |
| c1cc(C(c2nnnn2C2CCCCC2)N2CCN3CCCC3C2)ccn1 (configuration not stated) | inactive: -9.49% |
| CCOC(=O)C(N)CSC1CC(=O)N(c2ccc(C(=O)OC)cc2)C1=O (configuration not stated) | inactive: -1.57% |
| CCOC(=O)C1CCCN(C(=O)c2cc3c(-c4cccc(OC)c4)nn(C)c3s2)C1 (configuration not stated) | inconclusive: -66.3% |
| On1c(-c2ccco2)nc2c1CCc1nonc1-2 | inconclusive: -34.2% |
| CCc1ccc2c(c1)cc(CN(C(=S)Nc1ccccc1C)C1CC1)c1nnnn12 | inconclusive: -48.5% |
| O=C(CCc1ccccc1)Nc1cccc(-c2nnc(-c3ccco3)o2)c1 | inconclusive: -39.4% |
| CCOc1ccccc1N1CCN(Cc2ccco2)CC1 | inconclusive: -45.9% |
| CCCn1nnnc1SCC(=O)NCc1ccccc1 | inconclusive: -50.8% |
| CCOC(=O)C1CCCN(C(=O)C(C)Oc2ccc(Cl)cc2Cl)C1 (configuration not stated) | inactive: 12.9% |
| Cc1cc(C(C)(C)C)oc1C(=O)N1CCN(C(=O)c2oc(C(C)(C)C)cc2C)CC1 | inconclusive: -63.1% |
| Cc1ccccc1C1=NC(c2ccc(F)cc2F)ON1 (configuration not stated) | inconclusive: -47.6% |
| S=C(c1ccc2c(c1)OCO2)N1CCCCCC1 | inactive: 18.4% |
| CCOC(=O)c1oc2ccccc2c1CSc1nnnn1-c1ccccc1 | inactive: -7.34% |
| CSCC[C@H](NC(=O)CC(C)(C)C)c1nc2ccccc2[nH]1 | inconclusive: -34.1% |

Shown with bars between the fields: entries from further up.
SMILES | activity change (PNC), negative = inhibition
On1c(-c2ccco2)nc2c1CCc1nonc1-2 | inconclusive: -34.2%
CCCn1nnnc1SCC(=O)NCc1ccccc1 | inconclusive: -50.8%
S=C(c1ccc2c(c1)OCO2)N1CCCCCC1 | inactive: 18.4%

Further entries follow.

| SMILES | activity change (PNC), negative = inhibition |
| --- | --- |
| O=S(=O)(/N=C(/Nc1ccccn1)c1ccccc1)c1ccccc1 | inconclusive: -54.3% |
| CCOC(=O)N1CCN(c2ccc(C(F)(F)F)cn2)CC1 | inconclusive: -33.9% |
| CCc1cc2c(N3CCCCC3)ncnc2s1 | inactive: 34.2% |
| COc1ccc(C)c(Cn2c(-c3nonc3N)nc3ccccc32)c1 | inconclusive: -38.5% |
| CCOC(=O)C1CCN(C2CC(=O)N(c3cccc(Cl)c3)C2=O)CC1 (configuration not stated) | inactive: 32.3% |
| CCOC(=O)c1c(N)sc2c1CCC(C)C2 (configuration not stated) | inconclusive: -38.4% |
| COc1ccccc1NC(=O)Nc1ccc(Cl)c(S(=O)(=O)Nc2ccccc2OC)c1 | inactive: 44.4% |
| CN(C)CCNc1ncnc2ccccc12 | inconclusive: -37.6% |
| Cc1noc(C)c1COc1cccc(C(=O)OCC(=O)N2CC(=O)Nc3ccccc32)c1 | inconclusive: -31.9% |
| CCCn1c(N)c(Sc2ccc(Cl)cc2)c(=O)n(CCC)c1=O | inactive: -15.2% |
| CCCCCn1c(=O)[nH]c2cc(C(=O)N3CCN(CC)CC3)ccc2c1=O | inactive: 30.5% |
| Cc1ccc(NC(C#N)c2ccccc2OCc2ccccc2)cc1 (configuration not stated) | inactive: -16.7% |
| O=C1c2ccccc2C(=O)N1CCCC(=O)N1CCc2ccccc21 | inconclusive: -52.6% |
| CCC(CC)C(=O)Oc1c(Sc2ccccc2[N+](=O)[O-])c(C)nn1C(C)(C)C | inconclusive: -41% |
| CCN1CCN(c2ccc(NC(=O)Cc3ccccc3)cc2)CC1 | inconclusive: -51.7% |
| Cc1ccc(/C=C/C(=O)NCc2cccs2)cc1 | inactive: -15.6% |
| Cc1ccccc1Cn1cnc2c(nnn2Cc2ccc(F)cc2)c1=O | inconclusive: -44.2% |
| O=C1Cc2ccccc2Sc2cc(OCCCN3CCCCC3)ccc21 | inconclusive: -32.7% |
| COCCCNCCOc1ccccc1-c1ccccc1 | inconclusive: -55.4% |
| CSc1ccc2c(c1)N(CCC1CCCCN1C)c1ccccc1S2 (configuration not stated) | active: -115% |
| Cc1ccccc1C(=O)Nc1ccc(Br)c(C)n1 | active: -107% |
| CCCCCn1c(=O)[nH]c2cc(C(=O)NCCN(CC)CC)ccc2c1=O | inconclusive: -49.7% |
| CC1=CC2=NC(=O)/C(=C\c3cc(C)n(-c4ccccc4F)c3C)C(=N)N2O1 | inconclusive: -35.8% |
